Where two headings read alike, the source gives them in different places. The match of structure and compound is tentative.
Target: cloned human CRF1 receptors (Homo sapiens, UniProt P34998)
Assay: CRF1 receptor binding assay (inhibition of 125I-ovine-CRF binding to membranes of 293EBNA cells transfected with hCRFR1)
Conditions: read-out: IC50 Range* (potency of binding to CRF1 receptor)

Protein sequences, listed by entry. Tags and fused reporters are not part of them. Residues count along the entry.
UniProt P34998, 24-415 limits assumed: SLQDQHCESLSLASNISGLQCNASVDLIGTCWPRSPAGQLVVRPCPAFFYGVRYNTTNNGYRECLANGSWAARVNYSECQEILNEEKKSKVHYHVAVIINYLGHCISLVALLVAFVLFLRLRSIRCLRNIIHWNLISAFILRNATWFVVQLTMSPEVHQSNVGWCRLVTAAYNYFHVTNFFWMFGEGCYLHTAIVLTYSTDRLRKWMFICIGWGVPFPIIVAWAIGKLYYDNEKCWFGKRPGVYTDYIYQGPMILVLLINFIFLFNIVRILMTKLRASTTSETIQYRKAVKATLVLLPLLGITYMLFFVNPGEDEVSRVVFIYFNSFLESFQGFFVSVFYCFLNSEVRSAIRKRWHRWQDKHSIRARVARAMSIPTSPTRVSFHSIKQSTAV

Row | Structure (SMILES) | IC50 (IC50 ranges as class symbols a-e) | IC50 (IC50 ranges, class symbols a-e)
1 | Cc1nc2c(-c3cc(F)c(N(C)C)cc3Cl)ccnc2n(C(C)C2CCC2)c1=O (centres unmarked) | 1 to 10 nM | –
2 | CCC(COC)n1c(=O)c(C)nc2c(-c3ccc(OC)cc3Cl)ncnc21 (centres unmarked) | – | 10 to 100 nM

Source: US7067658B2, “Pyridino and pyrimidino pyrazinones” (Bristol-Myers Squibb Company, priority 2002, dated 2006)
